Measurements reported in PubChem BioAssay AID1159600 (NIAID, 2016).
In all, the deposit lists 756 reagents; shown is an unselected part. Over the whole deposit, 134 (18%) got an active call. 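Active includes both reduced and increased reporter signal, though most active siRNAs reduce it; R848 dose unknown.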 Reagents against one gene are numbered here. The record does not give: the amount of reagent.

Assay: 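Which TLR pathway genes support TNF promoter activation by R848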 (primary screen)
System: human THP-1 TNF reporter clone B5, made macrophage-like with PMA
Reagent: single siRNA against human genes
Time to read-out: 4 h ligand stimulation, assayed 48 to 72 h after siRNA transfection
Conditions: R848 (TLR7/8 agonist) for 4 hours before lysis; dose not given
Measured: 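TNF promoter firefly to renilla luciferase ratio after 4 h R848, scaled per plate by median and MAD, robust z-score against negative controls, mean of replicates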
Scale: TNF reporter z-score: higher = stronger TNF promoter reporter signal after R848
Call rule: 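Active where mean z-score is about 1.5 or more from zero in either direction; depositor grades use cut-offs of 1, 1.5, 2 and 2.5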
Calls: active = strong change in TNF reporter (up or down); inactive = little change

IFNAR1 (GeneID 3454) #1 showed TNF reporter z-score -0.51; inactive. Depletion of IFNAR1 (GeneID 3454) #2 came out at: TNF reporter z-score -1.82; active. With knock-down of IFNAR1 (GeneID 3454) #3, the screen gave TNF reporter z-score 0.601; inactive. Depletion of IFNAR1 (GeneID 3454) #4 came out at: TNF reporter z-score -1.33; inactive. After knock-down of IFNAR1 (GeneID 3454) #5 the results were TNF reporter z-score 0.288; inactive. With knock-down of IFNAR1 (GeneID 3454) #6 the results were TNF reporter z-score -0.568; inactive.

For EGR1 (GeneID 1958) #1, the entry reads TNF reporter z-score -1.61; active. For EGR1 (GeneID 1958) #2, the values are TNF reporter z-score -2.19; active. With knock-down of EGR1 (GeneID 1958) #3, the record shows TNF reporter z-score -2.84; active. Against EGR1 (GeneID 1958) #4, the entry reads TNF reporter z-score -0.915; inactive. EGR1 (GeneID 1958) #5 scored TNF reporter z-score -0.919; inactive. Against EGR1 (GeneID 1958) #6, the entry reads TNF reporter z-score 1.54; active.

With knock-down of TOLLIP (GeneID 54472) #1, the record shows TNF reporter z-score -1.29; inactive. Depletion of TOLLIP (GeneID 54472) #2 came out at: TNF reporter z-score -1.66; active. TOLLIP (GeneID 54472) #3 showed TNF reporter z-score 1.06; inactive. Knock-down of TOLLIP (GeneID 54472) #4 came out at: TNF reporter z-score -1.15; inactive. Against TOLLIP (GeneID 54472) #5, the entry reads TNF reporter z-score 0.474; inactive. Depletion of TOLLIP (GeneID 54472) #6 came out at: TNF reporter z-score -0.515; inactive.

Against REL (GeneID 5966) #1, the entry reads TNF reporter z-score 1.44; inactive. Knock-down of REL (GeneID 5966) #2 resulted in: TNF reporter z-score -0.952; inactive. With knock-down of REL (GeneID 5966) #3, the record shows TNF reporter z-score -0.76; inactive. REL (GeneID 5966) #4 gave TNF reporter z-score -1.17; inactive. For REL (GeneID 5966) #5 the deposit lists TNF reporter z-score -0.46; inactive. REL (GeneID 5966) #6 showed TNF reporter z-score -0.449; inactive.

Copied from above, 2 entries:
EGR1 (GeneID 1958) #5 — TNF reporter z-score = -0.919; Call = inactive
EGR1 (GeneID 1958) #6 — TNF reporter z-score = 1.54; Call = active
